Assay results as given in patent US20040203128A1, “Use of PP2A phosphatase modulators in the treatment of mental disorders” (priority 2002, published 2004).
These are yes or no findings as the source states them, for the method shown. Some results given as binding are weak or reduced against the parent protein; the word gives no strength. Sequences can lack the tags named with a protein.

Target: GST-2E11 recombinant protein (fusion between a KCNQ2-15b polypeptide comprising exons 13, 14 and 15b and GST) (human)
Test: solid phase overlay assay: 32P-labeled GST-PPP2R2C probe on blotted GST-2E11 (100 ng, 10 ng, 0.1 ng); band intensity proportional to the quantity loaded

binding: binds
B1: GST-PPP2R2C radiolabeled recombinant protein (protein, not shown: a dimerising Fc or GST)
chain: GEDTDTRKINHSFLRDHSYVTEADIISTVEFNHTGELLATGDKGGRVVIFQREPESKNAPHSQGDYDVYSTFQSHEPEFDYLKSLEIEEKINKIKWLPQQNAAHSLLSTNDKTIKLWKITERDKRPEGYNLKDEEGKLKDLSTVTSLQVPVLKPMDLMVEVSPRRIFANGHTYHINSISVNSDCETYMSADDLRINLWHLAITDRSFNIVDIKPANMEDLTEVITASEFHPHHCNLFVYSSSKGSLRLCDMPAAALCDKHSKLFEEPEDPSNRSFFSEIISSVSDVKFSHSDRYMLTRDYLTVKVWDLNMEARPIETYQVHDYLRSKLCSLYENDCIFDKFECAWNGSDSVIMTGAYNNFFRMFDRNTKRDVTLEASRESSKPRAVLKPRRVCVGGKRRRDDISVDSLDFTKKILHTAWHPAENIIAIAATNNLYIFQDKVNSDMH
modifications: 32P-phosphorylated in vitro with PKA and [32P]-γATP (site not stated)
